Reference: the supplement of paper PMC7661543
Differences between knockout arms are mostly noise.

Tests used:
[1] = system: BT-20; test: relative cell number vs DMSO control (72 h) (% of DMSO); higher = less growth inhibition (more cells)
Description: (§1)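 QMAP-Seq: a pool of 5 breast cancer cell lines (ZR-75-1, SKBR3, HCC-38, MDA-MB-231, BT-20), each carrying 12 doxycycline-inducible Cas9 sgRNA perturbations (11 knockouts plus non-targeting sgNT), was treated with compounds for 72 h at four 10-fold doses (10 nM-10 uM or 1 nM-1 uM range). Barcodes were amplified and sequenced, and cell number was interpolated from 293T spike-in standard curves. The result is expressed as % of the median of DMSO wells. Two biological replicates.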

[2] = system: HCC-38; test: as above
Description: as §1

C=CC[C@@H]1/C=C(\C)C[C@H](C)C[C@H](OC)[C@H]2O[C@@](O)(C(=O)C(=O)N3CCCC[C@H]3C(=O)O[C@H](/C(C)=C/[C@@H]3CC[C@@H](O)[C@H](OC)C3)[C@H](C)[C@@H](O)CC1=O)[C@H](C)C[C@@H]2OC [Tacrolimus]
relative cell number
Details	[1]	[2]
sgRNA knockout: sgATF3, 10 nM	119	137
sgRNA knockout: sgATF3, 100 nM	93.8	110
sgRNA knockout: sgATF3, 1000 nM	110	124
sgRNA knockout: sgATF3, 10000 nM	111	127
sgRNA knockout: sgATF4, 10 nM	127	128
sgRNA knockout: sgATF4, 100 nM	96.4	109
sgRNA knockout: sgATF4, 1000 nM	101	118
sgRNA knockout: sgATF4, 10000 nM	117	121
sgRNA knockout: sgATF6, 10 nM	111	153
sgRNA knockout: sgATF6, 100 nM	113	128
sgRNA knockout: sgATF6, 1000 nM	96.41	127
sgRNA knockout: sgATF6, 10000 nM	93	137.8
sgRNA knockout: sgATG7, 10 nM	121	122
sgRNA knockout: sgATG7, 100 nM	92.3	104
sgRNA knockout: sgATG7, 1000 nM	100	124
sgRNA knockout: sgATG7, 10000 nM	115	122.8
sgRNA knockout: sgERN1, 10 nM	110	130
sgRNA knockout: sgERN1, 100 nM	93.38	100
sgRNA knockout: sgERN1, 1000 nM	113	134
sgRNA knockout: sgERN1, 10000 nM	109	138
sgRNA knockout: sgHSF1, 10 nM	123	154
sgRNA knockout: sgHSF1, 100 nM	83.7	126
sgRNA knockout: sgHSF1, 1000 nM	98.4	132
sgRNA knockout: sgHSF1, 10000 nM	101	169
sgRNA knockout: sgHSF2, 10 nM	119	143
sgRNA knockout: sgHSF2, 100 nM	91.1	112
sgRNA knockout: sgHSF2, 1000 nM	107	132
sgRNA knockout: sgHSF2, 10000 nM	113	142
sgRNA knockout: sgKEAP1, 10 nM	116	157.2
sgRNA knockout: sgKEAP1, 100 nM	97	120
sgRNA knockout: sgKEAP1, 1000 nM	106	129
sgRNA knockout: sgKEAP1, 10000 nM	96	185
sgRNA knockout: sgNFE2L2, 10 nM	138	126
sgRNA knockout: sgNFE2L2, 100 nM	108	104.8
sgRNA knockout: sgNFE2L2, 1000 nM	135	121
sgRNA knockout: sgNFE2L2, 10000 nM	147	121
sgRNA knockout: sgSLC35F2, 10 nM	124	122
sgRNA knockout: sgSLC35F2, 100 nM	107	106
sgRNA knockout: sgSLC35F2, 1000 nM	116	121
sgRNA knockout: sgSLC35F2, 10000 nM	88.9	129
sgRNA knockout: sgXBP1, 10 nM	108	126
sgRNA knockout: sgXBP1, 100 nM	104	109.5
sgRNA knockout: sgXBP1, 1000 nM	116	119
sgRNA knockout: sgXBP1, 10000 nM	113.6	132

COc1cc([C@@H]2c3cc4c(cc3[C@@H](O[C@@H]3O[C@@H]5CO[C@@H](c6cccs6)O[C@H]5[C@H](O)[C@H]3O)[C@H]3COC(=O)[C@H]23)OCO4)cc(OC)c1O [Teniposide]
relative cell number
Details	[1]	[2]
sgRNA knockout: sgATF3, 10 nM	99.4	78.1
sgRNA knockout: sgATF3, 100 nM	62.6	42.2
sgRNA knockout: sgATF3, 1000 nM	36.9	23.4
sgRNA knockout: sgATF3, 10000 nM	19.9	15.4
sgRNA knockout: sgATF4, 10 nM	105	78.6
sgRNA knockout: sgATF4, 100 nM	63.8	44
sgRNA knockout: sgATF4, 1000 nM	44.4	24.6
sgRNA knockout: sgATF4, 10000 nM	27.4	12.7
sgRNA knockout: sgATF6, 10 nM	95.4	90.2
sgRNA knockout: sgATF6, 100 nM	52.3	55
sgRNA knockout: sgATF6, 1000 nM	45	25.1
sgRNA knockout: sgATF6, 10000 nM	25.9	12.6
sgRNA knockout: sgATG7, 10 nM	106	85.2
sgRNA knockout: sgATG7, 100 nM	66.2	47.9
sgRNA knockout: sgATG7, 1000 nM	47.1	26
sgRNA knockout: sgATG7, 10000 nM	22.5	16.5
sgRNA knockout: sgERN1, 10 nM	97.3	95.4
sgRNA knockout: sgERN1, 100 nM	67.4	49.7
sgRNA knockout: sgERN1, 1000 nM	48.7	26.4
sgRNA knockout: sgERN1, 10000 nM	24.9	15.5
sgRNA knockout: sgHSF1, 10 nM	88.2	86
sgRNA knockout: sgHSF1, 100 nM	53.5	32.7
sgRNA knockout: sgHSF1, 1000 nM	46.9	35.1
sgRNA knockout: sgHSF1, 10000 nM	25.9	16.3
sgRNA knockout: sgHSF2, 10 nM	95.8	84.6
sgRNA knockout: sgHSF2, 100 nM	67	48.7
sgRNA knockout: sgHSF2, 1000 nM	53.2	25.3
sgRNA knockout: sgHSF2, 10000 nM	22.9	15.2
sgRNA knockout: sgKEAP1, 10 nM	89.4	102
sgRNA knockout: sgKEAP1, 100 nM	64.79	58.7
sgRNA knockout: sgKEAP1, 1000 nM	49	29
sgRNA knockout: sgKEAP1, 10000 nM	24.1	19.5
sgRNA knockout: sgNFE2L2, 10 nM	106	76.3
sgRNA knockout: sgNFE2L2, 100 nM	44.4	45.4
sgRNA knockout: sgNFE2L2, 1000 nM	48.3	22.7
sgRNA knockout: sgNFE2L2, 10000 nM	29.3	10.5
sgRNA knockout: sgSLC35F2, 10 nM	105	84.7
sgRNA knockout: sgSLC35F2, 100 nM	51.9	48.36
sgRNA knockout: sgSLC35F2, 1000 nM	48.9	24.9
sgRNA knockout: sgSLC35F2, 10000 nM	25.6	12.1
sgRNA knockout: sgXBP1, 10 nM	100	81
sgRNA knockout: sgXBP1, 100 nM	59.3	45.8
sgRNA knockout: sgXBP1, 1000 nM	51.7	23.6
sgRNA knockout: sgXBP1, 10000 nM	26.4	14.2
